Data as given in PubChem BioAssay AID504764 (Drosophila RNAi Screening Center, 2011)
Assay: 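Genome-wide screen for regulators of Notch-driven gene expression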 (primary screen). System: Drosophila Kc167 cells. Reagent: long dsRNA against Drosophila genes. Time to read-out: about 5 days (4 days dsRNA, then 24 h after transfection). Conditions: transfection of constitutively active membrane-tethered Notch lacking the extracellular domain, read 24 h later. Measured: 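Light from a Notch-responsive E(spl)m3 luciferase reporter under active Notch, with control-promoter and no-Notch reporter wells to normalise; raw counts from paired wells a and b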. Scale: induced reporter light, run 1, well a and induced reporter light, run 1, well b: higher = more light from the Notch target reporter with active Notch; control promoter light, run 1, well a and control promoter light, run 1, well b: higher = more light from the viral control promoter (cell number, transfection, viability); uninduced reporter light, run 1, well a: higher = more light from the Notch target reporter without active Notch. Rule for the call: 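Hit if the duplicate-averaged log2 ratio of induced to control-promoter light gives a plate-wise z beyond ±2, or induced to uninduced beyond ±1.8; weak-control or discordant-duplicate wells dropped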. Meaning of the calls: active = modifier hit (raised or lowered Notch signal); inactive = not a hit.
The screen tested about 22,000 reagents; shown is a random part of those that have a named target and a result. In the full data, 403 (1.9%) got an active call. 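Unnormalised raw counts per well; ratio z-scores behind the hit calls and whether each hit raises or lowers signal are not deposited.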 No sequences are given here. The record does not give: the amount of reagent.

Gene	DRSC id	induced reporter light, run 1, well a	induced reporter light, run 1, well b	control promoter light, run 1, well a	control promoter light, run 1, well b	uninduced reporter light, run 1, well a	Call
Med	DRSC16737	23700	19065	24785	25695	4350	inactive
CG3857	DRSC18542	2.04e5	2.38e5	2.99e5	2.84e5	16765	inactive
CG9445	DRSC05006	1.79e5	1.76e5	2.93e5	2.36e5	19892	inactive
JMJD5	DRSC08372	1.95e5	1.64e5	2.09e5	2.38e5	7778	inactive
ytr	DRSC04306	2.06e5	2.43e5	1.50e5	1.91e5	13655	inactive
ytr	DRSC22073						inactive
sqd	DRSC15160	2.17e5	2.45e5	2.30e5	2.53e5	17665	inactive
sqd	DRSC17066	1.80e5	1.98e5	3.13e5	2.78e5	13235	inactive
CG4619	DRSC02764	2.29e5	2.15e5	2.20e5	2.12e5	17835	inactive
zormin	DRSC07969	2.30e5	2.23e5	2.65e5	2.29e5	18978	inactive
zormin	DRSC08210	1.00e5	1.22e5	2.38e5	1.90e5	9665	inactive
zormin	DRSC08212	85040	99230	1.81e5	1.98e5	9138	inactive
zormin	DRSC08213	1.43e5	1.30e5	1.44e5	1.64e5	6060	inactive
zormin	DRSC08297	1.19e5	1.29e5	2.02e5	2.29e5	7900	inactive
zormin	DRSC08571	20960	23405	37380	41405	5455	inactive
nebu	DRSC09807	1.94e5	1.78e5	1.10e5	87365	12510	active
nebu	DRSC09808	2.18e5	1.75e5	1.94e5	1.65e5	5185	active
CG10814	DRSC06004	1.54e5	1.80e5	1.50e5	1.58e5	15745	inactive
Snmp1	DRSC16168	1.89e5	1.93e5	2.65e5	2.69e5	18350	inactive
CG7860	DRSC20060	1.95e5	1.70e5	2.34e5	2.06e5	11960	inactive
CG17780	DRSC15265	1.24e5	1.56e5	1.68e5	1.85e5	13610	inactive
b	DRSC03487	1.82e5	1.94e5	1.85e5	1.86e5	15765	inactive
CG9962	DRSC00739	98485	1.21e5	89460	51860	7780	inactive
SerRS	DRSC00496	45340	57455	44295	56060	4990	inactive
foi	DRSC10719	2.16e5	2.36e5	3.10e5	2.74e5	8600	inactive
CG9356	DRSC16476	1.59e5	1.30e5	92120	92385	11035	inactive
TTLL4B	DRSC00636	1.52e5	1.90e5	1.93e5	1.99e5	16525	inactive
qtc	DRSC02364	1.82e5	1.81e5	2.07e5	2.07e5	17020	inactive
qtc	DRSC02365	1.08e5	89690	1.06e5	90310	7030	inactive

Part of the list above in another layout.
{"Gene":"b","DRSC id":"DRSC03487","induced reporter light, run 1, well a":1.82e5,"induced reporter light, run 1, well b":1.94e5,"control promoter light, run 1, well a":1.85e5,"control promoter light, run 1, well b":1.86e5,"uninduced reporter light, run 1, well a":15765,"Call":"inactive"}
{"Gene":"CG9962","DRSC id":"DRSC00739","induced reporter light, run 1, well a":98485,"induced reporter light, run 1, well b":1.21e5,"control promoter light, run 1, well a":89460,"control promoter light, run 1, well b":51860,"uninduced reporter light, run 1, well a":7780,"Call":"inactive"}
{"Gene":"SerRS","DRSC id":"DRSC00496","induced reporter light, run 1, well a":45340,"induced reporter light, run 1, well b":57455,"control promoter light, run 1, well a":44295,"control promoter light, run 1, well b":56060,"uninduced reporter light, run 1, well a":4990,"Call":"inactive"}
{"Gene":"foi","DRSC id":"DRSC10719","induced reporter light, run 1, well a":2.16e5,"induced reporter light, run 1, well b":2.36e5,"control promoter light, run 1, well a":3.10e5,"control promoter light, run 1, well b":2.74e5,"uninduced reporter light, run 1, well a":8600,"Call":"inactive"}
{"Gene":"CG9356","DRSC id":"DRSC16476","induced reporter light, run 1, well a":1.59e5,"induced reporter light, run 1, well b":1.30e5,"control promoter light, run 1, well a":92120,"control promoter light, run 1, well b":92385,"uninduced reporter light, run 1, well a":11035,"Call":"inactive"}
{"Gene":"TTLL4B","DRSC id":"DRSC00636","induced reporter light, run 1, well a":1.52e5,"induced reporter light, run 1, well b":1.90e5,"control promoter light, run 1, well a":1.93e5,"control promoter light, run 1, well b":1.99e5,"uninduced reporter light, run 1, well a":16525,"Call":"inactive"}

More entries:
Gene	DRSC id	induced reporter light, run 1, well a	induced reporter light, run 1, well b	control promoter light, run 1, well a	control promoter light, run 1, well b	uninduced reporter light, run 1, well a	Call
c(2)M	DRSC01922	3.01e5	2.60e5	2.67e5	2.89e5	19335	inactive
CG32188	DRSC09510	1.91e5	1.81e5	2.25e5	2.66e5	20930	inactive
CG5653	DRSC10534	2.52e5	3.09e5	3.61e5	3.36e5	19930	inactive
CG11470	DRSC14313	1.33e5	1.17e5	1.98e5	1.92e5	9665	inactive
Arp1	DRSC14118	20095	25930	31840	25975	1770	inactive
CG10472	DRSC09730	92995	85025	71580	34915	10585	inactive
CG9646	DRSC07342	77015	1.08e5	1.21e5	1.30e5	5190	inactive
CycT	DRSC11124	46415	52800	31170	40555	2555	inactive
CG32669	DRSC18864	81410	70555	78485	61685	5670	inactive
glu	DRSC03539	2.50e5	2.15e5	1.48e5	1.47e5	12530	active
sima	DRSC17055	11305	13480	14415	12155	3495	inactive
Uba1	DRSC07567	48350	56835	44225	43145	5788	inactive
CG10357	DRSC08155	1.17e5	93705	1.47e5	1.65e5	5935	inactive
CG17919	DRSC12571	1.39e5	1.38e5	86710	73405	11270	inactive
Gr58c	DRSC04136	40515	39145	42285	32790	1705	inactive
Pfdn4	DRSC09761	2.14e5	2.21e5	3.34e5	1.82e5	14870	inactive
CG16739	DRSC06621	35990	36880	38330	52145	4220	inactive
mute	DRSC06562	60565	78545	1.05e5	1.21e5	7495	inactive
SCCRO4	DRSC10671	92690	86290	99600	84760	5220	inactive
SREBP	DRSC11182	40115	38265	32115	28195	2895	inactive
CG9663	DRSC00724	2.13e5	1.74e5	1.67e5	1.88e5	14605	inactive
CG34331	DRSC20679	75660	91955	90795	1.47e5	10875	inactive
CG17721	DRSC15253	71770	65310	65540	46280	3328	inactive
CG17065	DRSC20544	97435	99645	1.10e5	1.23e5	11650	inactive
nrv3	DRSC03097	1.94e5	1.80e5	2.62e5	2.32e5	12065	inactive
AP-1mu	DRSC14089	1.72e5	1.34e5	1.18e5	1.28e5	13370	inactive
CG11756	DRSC19424	1.11e5	1.08e5	1.93e5	2.41e5	8525	inactive
Pabp2	DRSC07501	22305	28225	36355	38135	2235	inactive
Sk2	DRSC08556	60975	99120	98670	56465	13180	active
CG16985	DRSC08501	88165	97785	1.39e5	1.27e5	5935	inactive
CG17283	DRSC15219	1.80e5	1.97e5	1.69e5	1.80e5	14005	inactive
CG32266	DRSC08062	1.70e5	2.13e5	2.17e5	1.91e5	15140	inactive
Nmdmc	DRSC16760	1.52e5	1.35e5	88795	88250	11795	inactive
CG12268	DRSC14491	1.74e5	2.29e5	2.43e5	2.73e5	18660	inactive
Fbxl4	DRSC19805	2.37e5	2.51e5	2.90e5	3.15e5	14825	inactive
